In the supplement of paper PMC8728848:
The other results are listed elsewhere or left out.

How the values were obtained:
Assay in all cases: glycan array binding signal (z-score within array); higher = stronger binding
Settings in all cases: glycan notation: IUPAC condensed, linker removed
[1] = target: Gal3S(b1-3)[Fuc(a1-4)]GlcNAc
How it was run: (§1)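 The binding signal is a Z-score computed within each array. Data were drawn from 3228 arrays in the Consortium for Functional Glycomics database, restricted to those with a known protein sequence. Scores were averaged over arrays of the same protein sequence at different concentrations or buffers, and over linkers, and negative values can be taken as non-binding.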

Gal3S(b1-4)Glc = target: Gal3S(b1-4)Glc
How it was run: as §1

Gal3S(b1-4)Glc6S = target: Gal3S(b1-4)Glc6S
How it was run: as §1

Gal3S(b1-4)GlcNAc = target: Gal3S(b1-4)GlcNAc
How it was run: as §1

[2] = target: Gal3S(b1-4)[Fuc(a1-3)]Glc6S
How it was run: as §1

[3] = target: Gal3S(b1-4)[Fuc(a1-3)]GlcNAc
How it was run: as §1

[4] = target: Gal3S(b1-4)[Fuc(a1-3)]GlcNAc6S
How it was run: as §1

Gal3S4S(b1-4)GlcNAc = target: Gal3S4S(b1-4)GlcNAc
How it was run: as §1

Gal3S6S(b1-4)GlcNAc = target: Gal3S6S(b1-4)GlcNAc
How it was run: as §1

Gal3S6S(b1-4)GlcNAc6S = target: Gal3S6S(b1-4)GlcNAc6S
How it was run: as §1

Gal4S(b1-4)GlcNAc = target: Gal4S(b1-4)GlcNAc
How it was run: as §1

Gal4S6S(b1-4)GlcNAc = target: Gal4S6S(b1-4)GlcNAc
How it was run: as §1

Gal6P(b1-4)GlcNAc = target: Gal6P(b1-4)GlcNAc
How it was run: as §1

Gal6S(b1-3)GlcNAc = target: Gal6S(b1-3)GlcNAc
How it was run: as §1

Gal6S(b1-3)GlcNAc6S = target: Gal6S(b1-3)GlcNAc6S
How it was run: as §1

Gal6S(b1-4)Glc = target: Gal6S(b1-4)Glc
How it was run: as §1

Gal6S(b1-4)Glc6S = target: Gal6S(b1-4)Glc6S
How it was run: as §1

Gal6S(b1-4)GlcNAc = target: Gal6S(b1-4)GlcNAc
How it was run: as §1

Gal6S(b1-4)GlcNAc6S = target: Gal6S(b1-4)GlcNAc6S
How it was run: as §1

GalNAc(a1-3)Gal = target: GalNAc(a1-3)Gal
How it was run: as §1

GalNAc(a1-3)GalNAc = target: GalNAc(a1-3)GalNAc
How it was run: as §1

[5] = target: GalNAc(a1-3)GalNAc(b1-3)Gal(a1-4)Gal(b1-4)Glc
How it was run: as §1

[6] = target: GalNAc(a1-3)GalNAc(b1-3)Gal(a1-4)Gal(b1-4)GlcNAc
How it was run: as §1

GalNAc(b1-3)Gal = target: GalNAc(b1-3)Gal
How it was run: as §1

[7] = target: GalNAc(b1-3)Gal(a1-4)Gal(b1-4)GlcNAc
How it was run: as §1

[8] = target: GalNAc(b1-3)Gal(a1-4)Gal(b1-4)GlcNAc(b1-3)Gal(b1-4)Glc
How it was run: as §1

[9] = target: GalNAc(b1-3)Gal(a1-6)Gal(b1-4)Glc
How it was run: as §1

GalNAc(b1-3)GalNAc = target: GalNAc(b1-3)GalNAc
How it was run: as §1

GalNAc(b1-3)GlcNAc = target: GalNAc(b1-3)GlcNAc
How it was run: as §1

GalNAc(b1-4)Gal(b1-4)Glc = target: GalNAc(b1-4)Gal(b1-4)Glc
How it was run: as §1

GalNAc(b1-4)GlcNAc = target: GalNAc(b1-4)GlcNAc
How it was run: as §1

[10] = target: GalNAc(b1-4)GlcNAc(b1-2)Man
How it was run: as §1

[11] = target: GalNAc(b1-4)GlcNAc(b1-2)Man(a1-3)[GalNAc(b1-4)GlcNAc(b1-2)Man(a1-6)]Man(b1-4)GlcNAc(b1-4)GlcNAc
How it was run: as §1

[12] = target: GalNAc(b1-4)GlcNAc(b1-3)GalNAc(b1-4)GlcNAc
How it was run: as §1

GalNAc(b1-4)GlcNAc6S = target: GalNAc(b1-4)GlcNAc6S
How it was run: as §1

GalNAc(b1-6)GalNAc = target: GalNAc(b1-6)GalNAc
How it was run: as §1

GalNAc3S(b1-4)GlcNAc = target: GalNAc3S(b1-4)GlcNAc
How it was run: as §1

B1: AT1G77380(17) (Arabidopsis thaliana), Q39134 (protein)
chain: MVQNHQTVLAVDMPQTGGSKYLDDDGKNKRTGSVWTASAHIITAVIGSGVLSLAWATAQLGWLAGPVVMLLFSAVTYFTSSLLAACYRSGDPISGKRNYTYMDAVRSNLGGVKVTLCGIVQYLNIFGVAIGYTIASAISMMAIKRSNCFHKSGGKDPCHMNSNPYMIAFGLVQILFSQIPDFDQLWWLSILAAVMSFTYSSAGLALGIAQVVVNGKVKGSLTGISIGAVTETQKIWRTFQALGDIAFAYSYSIILIEIQDTVKSPPSEEKTMKKATLVSVSVTTMFYMLCGCMGYAAFGDLSPGNLLTGFGFYNPYWLLDIANAAIVIHLIGAYQVYCQPLFAFIEKQASIQFPDSEFIAKDIKIPIPGFKPLRLNVFRLIWRTVFVIITTVISMLLPFFNDVVGLLGALGFWPLTVYFPVEMYIAQKKIPRWSTRWVCLQVFSLGCLVVSIAAAAGSIAGVLLDLKSYKPFRSEY
glycan array binding signal (z-score) [1]: -0.061 | glycan array binding signal (z-score) (Gal3S(b1-4)Glc): 0.107 | glycan array binding signal (z-score) (Gal3S(b1-4)Glc6S): -0.465 | glycan array binding signal (z-score) (Gal3S(b1-4)GlcNAc): 0.792 | glycan array binding signal (z-score) [2]: 0.338 | glycan array binding signal (z-score) [3]: -0.327 | glycan array binding signal (z-score) [4]: 0.275 | glycan array binding signal (z-score) (Gal3S4S(b1-4)GlcNAc): -0.634 | glycan array binding signal (z-score) (Gal3S6S(b1-4)GlcNAc): 0.114 | glycan array binding signal (z-score) (Gal3S6S(b1-4)GlcNAc6S): 1.11 | glycan array binding signal (z-score) (Gal4S(b1-4)GlcNAc): 0.045 | glycan array binding signal (z-score) (Gal4S6S(b1-4)GlcNAc): -0.468 | glycan array binding signal (z-score) (Gal6P(b1-4)GlcNAc): -0.442 | glycan array binding signal (z-score) (Gal6S(b1-3)GlcNAc): -0.519 | glycan array binding signal (z-score) (Gal6S(b1-3)GlcNAc6S): -0.57 | glycan array binding signal (z-score) (Gal6S(b1-4)Glc): 0.042 | glycan array binding signal (z-score) (Gal6S(b1-4)Glc6S): -0.34 | glycan array binding signal (z-score) (Gal6S(b1-4)GlcNAc): -0.004 | glycan array binding signal (z-score) (Gal6S(b1-4)GlcNAc6S): -0.166 | glycan array binding signal (z-score) (GalNAc(a1-3)Gal): -0.605 | glycan array binding signal (z-score) (GalNAc(a1-3)GalNAc): 0.267 | glycan array binding signal (z-score) [5]: -0.209 | glycan array binding signal (z-score) [6]: 2.28 | glycan array binding signal (z-score) (GalNAc(b1-3)Gal): 2.3 | glycan array binding signal (z-score) [7]: 0.17 | glycan array binding signal (z-score) [8]: 0.373 | glycan array binding signal (z-score) [9]: -0.708 | glycan array binding signal (z-score) (GalNAc(b1-3)GalNAc): -0.83 | glycan array binding signal (z-score) (GalNAc(b1-3)GlcNAc): -0.169 | glycan array binding signal (z-score) (GalNAc(b1-4)Gal(b1-4)Glc): 2.04 | glycan array binding signal (z-score) (GalNAc(b1-4)GlcNAc): 2.31 | glycan array binding signal (z-score) [10]: -0.825 | glycan array binding signal (z-score) [11]: 7.58 | glycan array binding signal (z-score) [12]: -0.789 | glycan array binding signal (z-score) (GalNAc(b1-4)GlcNAc6S): -0.676 | glycan array binding signal (z-score) (GalNAc(b1-6)GalNAc): 0.561 | glycan array binding signal (z-score) (GalNAc3S(b1-4)GlcNAc): -0.109
